Results as given in patent US20050215770A1.
Results are given in words; binding and its absence hold for the method and conditions named. Some entries that bind do so weakly or less than the wild type. Sequences can lack the tags named with a protein.

T1: Recombinant soluble human Flag-tagged NogoR (amino acids 1 to 309 of SEQ ID NO:2) (human) (UniProt Q9BZR6)
T1 sequence (chain, biotinylated with Sulfo-NHS-LC-Biotin): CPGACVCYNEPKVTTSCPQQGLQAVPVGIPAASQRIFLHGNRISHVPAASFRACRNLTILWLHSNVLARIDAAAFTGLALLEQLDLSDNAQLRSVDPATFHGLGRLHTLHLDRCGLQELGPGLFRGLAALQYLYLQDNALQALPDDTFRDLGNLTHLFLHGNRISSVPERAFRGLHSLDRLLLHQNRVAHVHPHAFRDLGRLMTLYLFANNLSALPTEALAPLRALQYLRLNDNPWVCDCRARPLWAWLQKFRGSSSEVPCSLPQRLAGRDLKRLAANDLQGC


Assays:
[1] = molecular target: T1, Recombinant soluble human Flag-tagged NogoR (amino acids 1 to 309 of SEQ ID NO:2) (human); assay: ECL phage screen (Example 1)
[2] = molecular target: T1, Recombinant soluble human Flag-tagged NogoR (amino acids 1 to 309 of SEQ ID NO:2) (human); assay: ECL phage screen on biotin-rHuNOGOSR-Flag (positive: 5-fold above background)
[3] = molecular target: T1, Recombinant soluble human Flag-tagged NogoR (amino acids 1 to 309 of SEQ ID NO:2) (human); assay: ECL competition vs Ori-TAG Rat MAG-Fc, phage and/or soluble scFv

| binding [1] | binding [2] | binding [3] | Binder |
| --- | --- | --- | --- |
| binds | binds |  | NGG2105 (scFv) scFv: EVQLLESGGGLVQPGGTLRLSCATSGFTFSSYAMSWVRQAPGKGLDWVSAISGSGGSTYYSHSVKGRFTISRDNSKNTLYLQMNSLRAEDTAVYYCAREGHFDYVSGSFSLWGQGTTVTVSSGGGGSGGGGSGGGGSALSYVLTQPPSVSVSPGQTTSVICSGNKLEDKYVSWYQQKPGQSPVLVIYQDATRPSGIPERFSASNSGNTATLTISGTQAIDEADYYCQVWDSSTGVVFGGGTKLTVLG |
| binds | binds | binds | NGF0936 (scFv) scFv: QVQLQESGAEVKKPGSSVKVSCKASGGTFSSYAISWVRQAPGQGLEWMGGIIPIFGTANYAQKFQGRVTITADESTSTAYMELSSLRSEDTAVYYCATLNSGYDYKWGYYYYGMDVWGRGTLVTVSSGGGGSGGGGSGGGGSAQPVLTQPPSASGAPGQTVTISCSGSSSNVGSNTVDWYQQLPGSAPKLLIYTNDQRPSGVPDRFSGSKSGTSASLAISGLQSEDEADYYCSTRDDRLNGRVFGGGTKLPVLG |
| binds |  | binds | NGF3C10 (scFv) scFv: QLQLQESGPGLVKPSGTLSLTCAVTGDSITSNNWWSWVRQAPGKGLEWIGDVYHTGTTNYNPSLKSRVTISVDESKNQFSLKVTSVTTADTAVYYCAREEYDVWSGPMDVWGQGTLVTVSSGGGGSGGGGSGGGGSAQAVLTQPSSVSGAPGQRVSISCTGSSSNIGAGYDVHWYQQLPGTAPKLLIYGNINRPSGVPDRFSGSKSGTSASLAITGLQAEDEADYYCQSYDSSLRAAVFGGGTKVTVLG |
| binds | binds | binds | NGE3064 (scFv) scFv: EVQLVQSGGGVVQPGRSLRLSCAASGFTFSDYGIHWVRQAPGKGLEWVAAILYDGSNQFYTDSVKGRFTLSRDISKNTLYLQMNSLRVEDTAVYYCVRDLVAAAGTGLPIGSVWGRGTMVTVSSGGGGSGGGGSGGGGSQSVLTQPASVSGSPGQSITISCTGTSSDVGGYNYVSWYQQHPGKAPKFMIYDVSKRPSGVSNRFSGSKSGNTASLTISGVQAEDEADYYCSSYTSASTVIFGGGTKLTVLG |
| binds | binds | binds | NGE2122 (scFv) scFv: EVQLVQSGAEVKKPGSSVKVSCKASGGTLRSFAISWVRQAPGQGLEWVGRIIPVLNIADYAQKFRGRVTLTADDFTDTAYMELSRLTSDDSAIYYCAKDRETVTTNWAYYFDYWGQGTMVTVSSGGGGSGGGGSGGGGSQSALTQPASVSGSRGQSITISCTGTTGDVGGYDYVSWYQQHPGKAPKLLIYGNSNRPSGVPDRFSASKSGNTASLTISGLQAEDEADYFCSTYAPPGIIMFGGGTKLTVLG |
| binds | binds | binds | NGF0947 (scFv) scFv: QVQLQESGGGLVQPGGSLRLSCAASGLNLRQEEMNWVRQTPEKGLEWISYISSGGGSRDYADSVKGRFTISRDNAKNLMYLQMNNLRAEDTAVYYCARQEAGRYEALDIWGRGTLVTVSSGGGGSGGGGSGGGGSAQSVLTQPPSVSGAPGQTVTISCTGTTSNIGAGYDVHWYQQVPGTAPKVLIYGSRNRPSGVPYRFSGFKSGTSASLAITGLQAEDEADYYCQAYDSSLSGYVFGMGTQLTVLS |
| binds | binds | binds | NGF0540 (scFv) scFv: QVQLQESGPGVVKPSETLSLSCTVSGDSISTSDYYWGWVRQPPGKGLEWIGSLFYRGTTYYSPSLKSRVSISVDTSKNQFSLNLSSVTASDTAVYFCARHARFGRHDYLGERDVFDIWGRGTMVTVSSGGGGSGGGGSGGGGSALSYELTQPPSASGTPGQRVTISCSGSSPNIGSNTVNWYQQLPGTAPKLLIHTNNQRPSGVPDRFSGSKSGTSASLAISGLQSEDEADYYCASWDDSLNGVVFGGGTKLTVLG |
| binds | binds | binds | NGE2077 (scFv) scFv: EVQLVQSGAEVKKPGSSVKVSCKASGDTFSSFGFSWVRQAPGQGLEWMGGIIPMYGTAKYAQKFQDRVTITADESMSTVYMELNSLRSDDTAVYYCARGPLVRYYFYYMDVWGRGTMVTVSSGGGGSGGGGSGGGGSQSVLTQPPSASGTPGQRVTISCSGSSSNIGSNTVNWYQRLPGAAPQLLIYNNDQRPSGIPDRFSGSRSGTSGSLVISGLQSEDEADYYCASWDDSLNGRVFGGGTKLTVLG |
| binds | binds |  | NGF0954 (scFv) scFv: EVQLVETGGGLVQPGGSLRLSCAASGFTVSTDYMSWVRQAPGKGLEWVSVIYPGGITCYADSVKGRFSISRESSKNTVYLQMNSLRAEDTAIYYCAREVADYYGMDVWGQGTLVTVSSGGGGSGGGGSGGGGSALEIVLTQSPATLSLSPGERATLSCRASQNVNIYLAWYQQKPGQPPRVLIYDASKRATGIPARFSGSGSGTDFTLTISSLEPEDFAVYYCQQRFDWPPITLGQGTRLEIKR |
| binds | binds |  | NGF0788 (scFv) scFv: QVQLVQSGGGLVKPGGSLRLSCAASGFTFSRYSMNWVRQAPGKGLEHVSAIIANGDSTYYTNSVKGRFTISRDNSKNRLYLQMGSLRPEDTAVYYCVRDGPGGQWGAFDIWGKGTLVTVSSGGGGSGGGGSGGGGSAQAVVIQEPSLSVSPGGTISLTCGLASGSVSSNHHPSWYQQTPGHTPRTLIYSATTRSTGVPDRFSGSILGNKAALTITGAQTEDESDYYCMLYLGPGIWVFGGGTKVTVLG |
| binds | binds | binds | NGE2925 (scFv) scFv: QVQLQESGPGLVKPSETLSLTCVVSGGSISSSNWWSWVRQPPGKGLEWIGEIYHSGSPNYNPSLKSRVTISVDKSKNQFSLKLSSVTSADTAVYYCARQWEGIRSWGQGTLVTVSRGGGGSGGGGSGGGGSSELTQDPAVSVALGQTVRITCQGDSLRSYYASWYQQKPGQAPVLVIYGKNNRPSGIPDRFSGSSSGNTASLTITGARAEDEADYYCNSRDSSGNHVVFGGGTKLTVLG |
| binds | binds | binds | NGE2105 (scFv) scFv: QVQLVQSGGGVVQPGESLRLSCAASGFTLSSYAMAWVRQAPGKGLEWIGNIYFGGSAYYNPSLKSRVTISLATSENQFSLKLTSVTAADTAMYFCAREINDYGDFGGYDLWGQGTMVTVSSGGGGSGGGGSGGGGSQSVLTQPASVSGSPGQSITISCTGTSSDVGGYNYVSWYQQHPGKTPKLMIYEGSKRPSGISNRFSGSKSGNTASLTISGLQAEDEADYYCSSYTTRSTRVFGGGTKLTVLG |
| binds |  | binds | NGF1E07 (scFv) scFv: EVQLVESGAEVKKPGASVKVSCKVSGDTLAELTMHWVRQAPGNGLEWMGGYDPESGETKHAQKFQGRVTMTEDTSTDTAYMELSSLRSEDTAVYYCAADRRHWGSLDVWGKGTLVTVSSGGGGSGGGGSGGGGSALSYVLTQPPSVSEAPGQRVTISCSGGNVGSSSVNWYQQLPGKAPTLLIYYDTVLTSGVSARFSGSRSATSASLAISGLQSEDEADYYCAIWDDSLNAWVFGGGTQLTVLS |
| binds | binds |  | NGF0808 (scFv) scFv: QVQLQESGGGVVQPGKSLRLSCAASGFAFSRSSMHWVRQAPGKGLEWVSVISYDGSIKYYADSVKGRFTISRDNSKNTMYLQMNSLRPEDTAVFYCARPLQGIPAAGLDYWGRGTMVTVSSGGGGSGGGGSGGGGSAQSVLTQPPSVSAAPGQKVTISCSGISSNIGNNHVSWYQQFPGTAPKLLIYDSNKRPSGIPDRFSGSKSGTSATLDITGLQTGDEADYYCGTWDNSLSAGVFGGGTKLTVLG |
| binds | binds | binds | NGF0719 (scFv) scFv: EVQLVQSGTEVKKPGASVKVSCKASGYTFSSYYMHWVRQAPGQGLEWMGVINPGGDVTGYAPKFQDRVTMTRDTSTSTLYMELSSLRSEDTALYYCARDSDTGWFSIDYWGRGTLVTVSSGGGGSGGGGSGGGGSAQAVLTQPSSVSGTPGQTVIISCSGSNSNIRGNTVNWYQQLPGSAPRLLIYSNNIRPSGVPDRFSGSKSDTSASLAISGLQSEDEADFYCATWDDSLRGLVIGGGTKLTVLG |
| binds |  | binds | NGF1C04 (scFv) scFv: QVQLQQSGPGLVRPSQTLSLACTVSGDSISSGDYYWTWIRQHPGKGLEWIGYISTRGSPYYNPSFMNRVAISIDSSKNQFSLNLSSVTAADTAVYYCTRETQHTSIFGVIHNWLDPWGQGTLVTVSSGGGGSGGGGSGGGGSAQAVLTQPSSASGTPGQRVSISCSGSSSNIGSNTVNWYQQLPGTAPKLLIYSGNQRPSGVPDRFSGSKSGTSASLAISGLQSEDEADYYCAAWDDSLNNLVFGPGTKVTVLG |
